Drawing on article PMC5996148, this text covers binding signal for one sequence.

The chains behind the UniProt entries cited, without tags or fusion partners. Where a name states a change or a piece, a line headed by the entry shows the natural chain unless it says otherwise.
UniProt Q6P597: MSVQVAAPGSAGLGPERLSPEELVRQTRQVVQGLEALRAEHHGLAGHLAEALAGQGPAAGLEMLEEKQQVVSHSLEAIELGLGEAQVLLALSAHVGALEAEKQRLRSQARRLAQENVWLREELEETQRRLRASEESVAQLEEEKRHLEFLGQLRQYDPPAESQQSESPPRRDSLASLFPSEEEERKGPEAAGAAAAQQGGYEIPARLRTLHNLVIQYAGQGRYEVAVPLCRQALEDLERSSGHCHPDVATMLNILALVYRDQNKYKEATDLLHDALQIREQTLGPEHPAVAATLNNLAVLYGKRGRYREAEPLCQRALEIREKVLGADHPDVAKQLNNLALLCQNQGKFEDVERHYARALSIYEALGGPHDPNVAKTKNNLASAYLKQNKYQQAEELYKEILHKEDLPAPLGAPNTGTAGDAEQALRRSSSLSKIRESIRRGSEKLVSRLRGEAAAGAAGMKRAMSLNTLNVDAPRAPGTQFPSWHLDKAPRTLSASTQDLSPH
UniProt Q9NSK0: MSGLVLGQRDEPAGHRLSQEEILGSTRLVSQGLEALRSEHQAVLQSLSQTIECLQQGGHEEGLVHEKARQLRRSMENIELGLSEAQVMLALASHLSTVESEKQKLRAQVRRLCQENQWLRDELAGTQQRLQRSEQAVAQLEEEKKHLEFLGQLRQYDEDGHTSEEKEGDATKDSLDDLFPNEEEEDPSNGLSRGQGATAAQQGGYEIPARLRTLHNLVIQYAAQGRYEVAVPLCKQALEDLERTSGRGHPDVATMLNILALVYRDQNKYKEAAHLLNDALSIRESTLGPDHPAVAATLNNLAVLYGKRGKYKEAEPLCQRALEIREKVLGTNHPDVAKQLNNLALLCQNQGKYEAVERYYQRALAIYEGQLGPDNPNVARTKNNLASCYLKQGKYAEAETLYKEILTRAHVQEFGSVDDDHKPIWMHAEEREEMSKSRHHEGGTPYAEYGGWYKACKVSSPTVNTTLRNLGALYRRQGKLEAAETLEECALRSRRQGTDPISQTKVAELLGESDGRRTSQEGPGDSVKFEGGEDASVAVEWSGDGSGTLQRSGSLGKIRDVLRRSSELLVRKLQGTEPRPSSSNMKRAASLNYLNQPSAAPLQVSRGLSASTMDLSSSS

Common to all, as to assay: protein microarray (ProtoArray v5.0), streptavidin-Alexa Fluor 647
Conditions in all cases: 3'-biotin; 20 mM Tris (pH 7.5), 5 mM MgCl2, 100 mM KCl, 0.1% Tween-20, A/T-rich and random oligonucleotide blockers; temperature not stated; high values mean tight binding

The test system of assay [1] is KIR3DX1 (human).
In assay [2] the test system is KIS (human).
For assay [3], the system named is KITLG (human).
Assay [4] concerns the target KLC3 (UniProt Q6P597).
The target of assay [5] is KLC4 (UniProt Q9NSK0).
Assay [6] concerns KLF12 (human).
In assay [7] the test system is KLHDC1 (human).
Assay [8] has as its system KLHDC2 (human).
Assay [9] deals with KLHDC3 (human).
Assay [10] has as its system KLHL17 (human).
For assay [11], the system named is KLHL20 (human).
For assay [12], the system named is KLHL25 (human).
For assay [13], the system named is KLHL32 (human).
Assay [14] deals with KLK1 (human).
Assay [15] concerns KLK13 (human).
Assay [16] concerns KLK2 (human).
In assay [17] the test system is KLK7 (human).
The subject of assay [18] is KLK9 (human).
In assay [19] the test system is KLRD1 (human).
Assay [20] has as its system KN motif and ankyrin repeat domain-containing protein 4 (human).

“And” between values parts separate entries of the source, which are not always exact repeats. Identical values can stand only once. This is one part of the list. For some assays here: Construct or isoform of the protein are uncertain.

Consider “GGGAGGCTGAGGCAGG [G4-1 biotinylated (PQS2)]”, for which the binding signal was -0.304 z-score in assay [1]; -0.319 z-score in assay [2]; -0.345 z-score and -0.298 z-score in assay [3]; -0.344 z-score in [4]; -0.343 z-score in assay [5]; -0.339 z-score in assay [6]. For the same sequence, the binding signal in assay [7] was -0.331 z-score; in assay [8], -0.32 z-score; in [9] it was -0.335 z-score; in [10] it was -0.31 z-score; in [11] it was -0.34 z-score; in [12] it was -0.307 z-score. Also, the binding signal is -0.361 z-score in [13]; -0.325 z-score in assay [14]; -0.298 z-score in assay [15]; -0.323 z-score in assay [16]; -0.337 z-score in assay [17]; -0.336 z-score in assay [18]. For the same sequence, the results for the binding signal in assay [19] and in assay [20] were -0.28 z-score and -0.355 z-score, respectively.
